Data published in paper PMC7395068, “The evolution of strategies to minimise the risk of human drug-induced liver injury (DILI) in drug discovery and development” (Archives of Toxicology, 2020).
Read-outs that look alike come from different tables or passages of the source.

Legend:
hLiMTs = assay: Combined HCI (HCS) and cellular ATP 3D assay in hLiMTs
HepaRG spheroids = assay: Combined HCI (HCS) and cellular ATP 3D assay in HepaRG spheroids

Row | SMILES | First responding feature (HCS endpoint MEC) (hLiMTs; hLiMT's) | First responding feature (HCS endpoint MEC) (HepaRG spheroids; hepaRG spheroid) | other results
1 | CC(=O)Oc1ccccc1C(=O)O [acetylsalicylic acid] | GSH |  | 
2 | NCCCC(O)(P(=O)(O)O)P(=O)(O)O [alendronate] |  | GSH | 
3 | Cn1cnc([N+](=O)[O-])c1Sc1ncnc2nc[nH]c12 [azathioprine] |  | MMP | 
4 | COc1ccccc1Oc1c(NS(=O)(=O)c2ccc(C(C)(C)C)cc2)nc(-c2ncccn2)nc1OCCO [bosentan] | MMP | MMP | 
5 | NC(=O)N1c2ccccc2C=Cc2ccccc21 [carbamazepine, reference compound] | GSH | GSH | 
6 | CN(C)CCC(c1ccc(Cl)cc1)c1ccccn1 (stereo not drawn) [chlorpheniramine] | GSH |  | 
7 | CN1CCN(C2=Nc3cc(Cl)ccc3Nc3ccccc32)CC1 [clozapine] | GSH |  | 
8 | O=P1(N(CCCl)CCCl)NCCCO1 (stereo not drawn) [cyclophosphamide, reference compound] |  |  | First responding feature (HCS endpoint MEC) (hLiMTs): GSH
9 | O=C1CN(/N=C/c2ccc(-c3ccc([N+](=O)[O-])cc3)o2)C(O)=N1 [dantrolene] | MMP |  | 
10 | O=C(O)Cc1ccccc1Nc1c(Cl)cccc1Cl [diclofenac] |  | GSH | 
11 | COc1cc2c(cc1OC)C(=O)C(CC1CCN(Cc3ccccc3)CC1)C2 (stereo not drawn) [donepezil] | MMP |  | 
12 | CCN(CC)C(=O)/C(C#N)=C/c1cc(O)c(O)c([N+](=O)[O-])c1 [entacapone] | GSH | GSH | 
13 | O=c1[nH]c(=O)n([C@@H]2O[C@H](CO)[C@@H](O)[C@@H]2F)cc1I [fialuridine] |  | GSH | 
14 | COc1ccc2c(c1)c(CC(=O)O)c(C)n2C(=O)c1ccc(Cl)cc1 [indomethacin] | MMP |  | 
15 | CC(=O)N1CCN(c2ccc(OCC3COC(Cn4ccnc4)(c4ccc(Cl)cc4Cl)O3)cc2)CC1 (stereo not drawn) [ketoconazole, reference compound] | GSH |  | 
16 | CS(=O)(=O)CCNCc1ccc(-c2ccc3ncnc(Nc4ccc(OCc5cccc(F)c5)c(Cl)c4)c3c2)o1 [lapatinib] |  | GSH | 
17 | N[C@@H](Cc1cc(I)c(Oc2ccc(O)c(I)c2)c(I)c1)C(=O)O [liothyronine] |  | SIZE | 
18 | CNC1(C)C2CCC(C2)C1(C)C (stereo not drawn) [mecamylamine] |  | MMP | 

Row | SMILES | First responding feature (HCS endpoint MEC) (hLiMTs; hLiMT's) | First responding feature (HCS endpoint MEC) (HepaRG spheroids; hepaRG spheroid) | other results
19 | CN(Cc1cnc2nc(N)nc(N)c2n1)c1ccc(C(=O)N[C@@H](CCC(=O)O)C(=O)O)cc1 [methotrexate, reference compound] | GSH | GSH | 
20 | Nc1cc(N2CCCCC2)nc(N)[n+]1[O-] [minoxidil] | MMP |  | 
21 | CO[C@@]12[C@H](COC(N)=O)C3=C(C(=O)C(C)=C(N)C3=O)N1C[C@@H]1N[C@@H]12 [mitomycin C] |  |  | First responding feature (HCS endpoint MEC) (HepaRG spheroids): GSH
22 | CCc1nn(CCCN2CCN(c3cccc(Cl)c3)CC2)c(=O)n1CCOc1ccccc1 [nefazodone, reference compound] | GSH |  | 
23 | O=C1CN(/N=C/c2ccc([N+](=O)[O-])o2)C(=O)N1 [nitrofurantoin] |  | MMP | 
24 | CCN(CC)CC#CCOC(=O)C(O)(c1ccccc1)C1CCCCC1 (stereo not drawn) [oxybutynin] | GSH |  | 
25 | C1CCC(C(CC2CCCCN2)C2CCCCC2)CC1 (stereo not drawn) [perhexiline] | MMP |  | 
26 | CC(COc1ccccc1)N(CCCl)Cc1ccccc1 (stereo not drawn) [phenoxybenzamine] | GSH |  | 
27 | Cc1ccc(N(CC2=NCCN2)c2cccc(O)c2)cc1 [phentolamine] | SIZE | GSH | 
28 | CCc1ccc(CCOc2ccc(CC3SC(=O)NC3=O)cc2)nc1 (stereo not drawn) [pioglitazone] | GSH | GSH | 
29 | Cc1cc2c(cc1CC(=O)c1sccc1S(=O)(=O)Nc1onc(C)c1Cl)OCO2 [sitaxsentan] | MMP | MMP | 
30 | [H]/N=C(/N)N[C@H]1[C@H](O)[C@@H](O)[C@H](O[C@@H]2O[C@@H](C)[C@](O)(C=O)[C@H]2O[C@@H]2O[C@@H](CO)[C@H](O)[C@@H](O)[C@@H]2NC)[C@@H](N/C(N)=N\[H])[C@@H]1O [streptomycin, reference compound] |  | GSH | 
31 | CCN(CC)CCNC(=O)c1c(C)[nH]c(/C=C2\C(=O)Nc3ccc(F)cc32)c1C [sunitinib] | GSH | GSH | 
32 | Nc1c2c(nc3ccccc13)CCCC2 [tacrine, reference compound] |  | GSH | 
33 | Cc1ccc(C(=O)c2cc(O)c(O)c([N+](=O)[O-])c2)cc1 [tolcapone, reference compound] | GSH | GSH | 
34 | Cc1c(C)c2c(c(C)c1O)CCC(C)(COc1ccc(CC3SC(=O)NC3=O)cc1)O2 (stereo not drawn) [troglitazone, reference compound] |  | MMP | 
35 | N[C@@H]1[C@H]2CN(c3nc4c(cc3F)c(=O)c(C(=O)O)cn4-c3ccc(F)cc3F)C[C@@H]12 [trovafloxacin] |  | GSH | 
36 | CCCC(CCC)C(=O)O [valproic acid] | GSH |  | 
